These results are taken from US20140038900A1.

Amino acid sequences for entries named in this document (tags omitted). A change or cut given only in a name is not applied to a line headed by its entry.
UniProt Q92598: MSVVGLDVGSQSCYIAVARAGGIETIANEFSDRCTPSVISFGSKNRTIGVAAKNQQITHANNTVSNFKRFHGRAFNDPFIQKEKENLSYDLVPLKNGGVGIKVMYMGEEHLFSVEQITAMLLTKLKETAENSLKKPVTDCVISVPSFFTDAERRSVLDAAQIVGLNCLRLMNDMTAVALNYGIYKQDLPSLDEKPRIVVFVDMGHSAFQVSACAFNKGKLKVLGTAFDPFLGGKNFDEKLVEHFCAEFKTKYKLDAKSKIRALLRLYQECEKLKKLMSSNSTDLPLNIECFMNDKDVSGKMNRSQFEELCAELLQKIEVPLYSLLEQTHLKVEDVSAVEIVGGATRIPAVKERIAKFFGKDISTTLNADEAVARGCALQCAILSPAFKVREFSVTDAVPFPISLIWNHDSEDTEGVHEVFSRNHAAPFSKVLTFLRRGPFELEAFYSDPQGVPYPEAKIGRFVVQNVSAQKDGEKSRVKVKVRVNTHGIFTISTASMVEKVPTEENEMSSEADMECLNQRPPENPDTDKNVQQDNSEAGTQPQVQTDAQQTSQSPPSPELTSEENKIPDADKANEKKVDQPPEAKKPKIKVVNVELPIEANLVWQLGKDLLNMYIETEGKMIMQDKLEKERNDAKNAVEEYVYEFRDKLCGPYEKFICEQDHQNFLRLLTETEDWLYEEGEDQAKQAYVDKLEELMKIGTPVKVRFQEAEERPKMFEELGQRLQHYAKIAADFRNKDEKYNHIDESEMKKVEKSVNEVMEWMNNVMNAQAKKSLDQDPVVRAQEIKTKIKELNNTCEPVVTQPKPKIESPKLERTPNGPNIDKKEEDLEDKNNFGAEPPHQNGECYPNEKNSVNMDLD
UniProt P0DMV8: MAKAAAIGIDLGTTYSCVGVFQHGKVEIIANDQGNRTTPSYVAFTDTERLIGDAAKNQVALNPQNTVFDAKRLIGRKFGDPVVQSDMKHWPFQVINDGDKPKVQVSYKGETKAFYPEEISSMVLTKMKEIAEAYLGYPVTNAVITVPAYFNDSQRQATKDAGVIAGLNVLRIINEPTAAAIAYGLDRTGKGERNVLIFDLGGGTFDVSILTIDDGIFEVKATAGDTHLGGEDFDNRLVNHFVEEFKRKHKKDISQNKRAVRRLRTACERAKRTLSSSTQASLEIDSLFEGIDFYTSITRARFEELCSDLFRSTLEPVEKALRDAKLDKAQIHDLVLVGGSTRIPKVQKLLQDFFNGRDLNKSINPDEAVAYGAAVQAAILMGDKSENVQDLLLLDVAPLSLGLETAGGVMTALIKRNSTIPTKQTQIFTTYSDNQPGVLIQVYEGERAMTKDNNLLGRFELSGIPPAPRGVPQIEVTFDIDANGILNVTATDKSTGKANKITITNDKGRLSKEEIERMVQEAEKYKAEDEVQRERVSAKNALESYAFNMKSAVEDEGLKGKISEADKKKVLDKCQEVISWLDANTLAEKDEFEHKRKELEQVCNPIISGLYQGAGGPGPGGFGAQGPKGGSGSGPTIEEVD
UniProt P04792: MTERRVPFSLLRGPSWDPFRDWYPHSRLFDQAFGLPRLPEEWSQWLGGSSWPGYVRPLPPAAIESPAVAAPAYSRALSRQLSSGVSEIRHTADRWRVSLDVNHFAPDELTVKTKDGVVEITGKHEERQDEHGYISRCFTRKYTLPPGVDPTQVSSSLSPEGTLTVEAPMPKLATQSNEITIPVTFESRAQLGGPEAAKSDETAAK
UniProt Q5R606: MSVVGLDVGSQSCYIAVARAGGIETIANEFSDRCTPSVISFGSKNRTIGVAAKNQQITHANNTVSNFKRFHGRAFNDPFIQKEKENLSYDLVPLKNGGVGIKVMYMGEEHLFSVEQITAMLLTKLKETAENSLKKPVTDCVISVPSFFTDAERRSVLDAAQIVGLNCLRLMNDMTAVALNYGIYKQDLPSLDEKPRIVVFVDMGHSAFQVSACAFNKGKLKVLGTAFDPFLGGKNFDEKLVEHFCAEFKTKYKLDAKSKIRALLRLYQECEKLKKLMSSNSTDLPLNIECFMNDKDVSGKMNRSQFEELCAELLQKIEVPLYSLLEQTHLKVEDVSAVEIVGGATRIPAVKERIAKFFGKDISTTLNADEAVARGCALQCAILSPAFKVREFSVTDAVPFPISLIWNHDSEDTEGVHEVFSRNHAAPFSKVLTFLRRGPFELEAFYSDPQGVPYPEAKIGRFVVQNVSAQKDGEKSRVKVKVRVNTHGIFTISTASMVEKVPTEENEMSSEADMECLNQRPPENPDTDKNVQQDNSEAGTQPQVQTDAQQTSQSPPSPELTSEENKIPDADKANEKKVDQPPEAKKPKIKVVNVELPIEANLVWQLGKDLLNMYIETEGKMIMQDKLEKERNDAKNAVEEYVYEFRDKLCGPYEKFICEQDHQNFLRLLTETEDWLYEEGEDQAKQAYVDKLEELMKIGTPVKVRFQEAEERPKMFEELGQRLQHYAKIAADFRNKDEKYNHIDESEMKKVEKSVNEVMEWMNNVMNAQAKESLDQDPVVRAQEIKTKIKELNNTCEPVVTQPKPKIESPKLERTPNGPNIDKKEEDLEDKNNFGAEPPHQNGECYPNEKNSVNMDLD

The target of test [1] is wild-type HSP110 (heat-shock protein 110), GFP-tagged (Homo sapiens (Human)) (UniProt Q92598). Put plainly: co-immunoprecipitation, transfected HCT116 cells (told again in the discussion).
Test [2] shares this target. Put plainly: co-immunoprecipitation (antibody to the C-terminus of HSP110) and GFP immunoblot, transfected HCT116 cells. (In general: Immunoblotting shows a protein as a band on a membrane.)
The target in test [3] is heat-shock protein 70 (HSP70) (UniProt P0DMV8). Put plainly: co-immunoprecipitation and Western blot, HCT116 cells.
The target of test [4] is heat-shock protein 27 (HSP27) (UniProt P04792). The test is described as above.

Results are given in words; binding and its absence hold for the method and conditions named. Binding seen in cells or lysates may run through a third protein. Some entries that bind do so weakly or less than the wild type.

As for “mutated HSP110 lacking exon 9 (HSP110delE9), GFP-tagged (from UniProt Q5R606 1-380)”, the binding result in test [1] and in test [2] was “binds” throughout.
As for “wild-type HSP110 (heat-shock protein 110), GFP-tagged (from UniProt Q92598 1-858)”, the binding result in test [3] and in test [4] was “binds” in each case.
